Experimental data from article PMC11172389.
These are yes or no findings as the source states them, for the method shown. Binding seen in cells or lysates may run through a third protein. A yes stands for co-enrichment or nearness to the bait. Other partners may have been found.

By UniProt entry, the sequences of proteins in these tests, tags left out. Where a name states a change or a piece, a line headed by the entry shows the natural chain unless it says otherwise. Residues count along the entry.
UniProt Q01815: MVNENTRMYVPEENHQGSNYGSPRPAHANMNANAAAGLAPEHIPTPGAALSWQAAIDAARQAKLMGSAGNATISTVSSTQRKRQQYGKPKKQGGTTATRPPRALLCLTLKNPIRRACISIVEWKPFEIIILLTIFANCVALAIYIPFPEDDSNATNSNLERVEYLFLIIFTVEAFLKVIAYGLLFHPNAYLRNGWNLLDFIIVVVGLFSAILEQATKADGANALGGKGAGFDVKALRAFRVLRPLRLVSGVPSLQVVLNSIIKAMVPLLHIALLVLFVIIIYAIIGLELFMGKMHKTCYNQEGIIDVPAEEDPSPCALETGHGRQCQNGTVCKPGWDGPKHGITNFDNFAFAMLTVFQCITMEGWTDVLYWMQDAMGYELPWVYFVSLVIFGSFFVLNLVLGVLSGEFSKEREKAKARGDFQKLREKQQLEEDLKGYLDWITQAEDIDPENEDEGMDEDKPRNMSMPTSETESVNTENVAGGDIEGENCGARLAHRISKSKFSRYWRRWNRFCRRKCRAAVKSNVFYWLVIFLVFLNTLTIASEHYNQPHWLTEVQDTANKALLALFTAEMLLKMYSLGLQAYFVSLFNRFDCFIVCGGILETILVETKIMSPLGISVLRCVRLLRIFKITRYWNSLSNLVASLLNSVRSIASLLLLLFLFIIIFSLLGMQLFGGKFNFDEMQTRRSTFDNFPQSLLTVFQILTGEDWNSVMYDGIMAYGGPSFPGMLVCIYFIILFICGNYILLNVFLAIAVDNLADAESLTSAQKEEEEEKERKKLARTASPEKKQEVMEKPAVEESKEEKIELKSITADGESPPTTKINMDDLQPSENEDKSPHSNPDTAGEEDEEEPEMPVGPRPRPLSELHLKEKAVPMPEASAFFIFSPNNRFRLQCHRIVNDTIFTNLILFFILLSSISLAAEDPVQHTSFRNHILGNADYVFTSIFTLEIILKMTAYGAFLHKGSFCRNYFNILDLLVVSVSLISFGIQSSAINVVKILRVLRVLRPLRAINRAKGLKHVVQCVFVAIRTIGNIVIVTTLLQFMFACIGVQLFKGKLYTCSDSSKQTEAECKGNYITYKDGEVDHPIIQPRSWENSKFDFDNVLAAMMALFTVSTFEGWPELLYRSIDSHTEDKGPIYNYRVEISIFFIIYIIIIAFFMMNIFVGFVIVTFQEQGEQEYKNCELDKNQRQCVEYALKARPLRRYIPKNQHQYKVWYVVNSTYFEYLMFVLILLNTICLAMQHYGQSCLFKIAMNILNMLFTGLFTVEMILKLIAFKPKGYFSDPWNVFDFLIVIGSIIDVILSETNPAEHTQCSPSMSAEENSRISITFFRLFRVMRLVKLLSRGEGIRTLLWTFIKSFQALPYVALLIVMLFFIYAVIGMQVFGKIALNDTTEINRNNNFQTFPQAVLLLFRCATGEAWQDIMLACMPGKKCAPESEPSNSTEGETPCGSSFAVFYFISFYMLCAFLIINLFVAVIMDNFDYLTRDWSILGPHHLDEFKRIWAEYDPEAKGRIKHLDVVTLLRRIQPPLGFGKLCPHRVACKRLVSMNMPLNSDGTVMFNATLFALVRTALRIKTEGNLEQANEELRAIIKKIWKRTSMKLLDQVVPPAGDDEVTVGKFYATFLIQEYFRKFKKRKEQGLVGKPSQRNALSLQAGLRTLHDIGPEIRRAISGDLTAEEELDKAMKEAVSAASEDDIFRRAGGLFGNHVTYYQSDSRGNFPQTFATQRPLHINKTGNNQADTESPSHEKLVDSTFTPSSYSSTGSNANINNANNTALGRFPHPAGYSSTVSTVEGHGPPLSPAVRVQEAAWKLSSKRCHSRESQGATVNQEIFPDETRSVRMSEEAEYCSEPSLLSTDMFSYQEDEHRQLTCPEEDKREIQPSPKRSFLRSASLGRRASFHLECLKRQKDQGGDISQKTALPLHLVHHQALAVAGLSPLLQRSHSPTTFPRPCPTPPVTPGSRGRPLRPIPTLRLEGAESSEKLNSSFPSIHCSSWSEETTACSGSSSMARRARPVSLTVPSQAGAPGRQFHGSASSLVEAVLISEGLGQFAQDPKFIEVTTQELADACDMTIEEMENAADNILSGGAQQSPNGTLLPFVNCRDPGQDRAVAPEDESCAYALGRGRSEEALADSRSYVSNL
UniProt P58391: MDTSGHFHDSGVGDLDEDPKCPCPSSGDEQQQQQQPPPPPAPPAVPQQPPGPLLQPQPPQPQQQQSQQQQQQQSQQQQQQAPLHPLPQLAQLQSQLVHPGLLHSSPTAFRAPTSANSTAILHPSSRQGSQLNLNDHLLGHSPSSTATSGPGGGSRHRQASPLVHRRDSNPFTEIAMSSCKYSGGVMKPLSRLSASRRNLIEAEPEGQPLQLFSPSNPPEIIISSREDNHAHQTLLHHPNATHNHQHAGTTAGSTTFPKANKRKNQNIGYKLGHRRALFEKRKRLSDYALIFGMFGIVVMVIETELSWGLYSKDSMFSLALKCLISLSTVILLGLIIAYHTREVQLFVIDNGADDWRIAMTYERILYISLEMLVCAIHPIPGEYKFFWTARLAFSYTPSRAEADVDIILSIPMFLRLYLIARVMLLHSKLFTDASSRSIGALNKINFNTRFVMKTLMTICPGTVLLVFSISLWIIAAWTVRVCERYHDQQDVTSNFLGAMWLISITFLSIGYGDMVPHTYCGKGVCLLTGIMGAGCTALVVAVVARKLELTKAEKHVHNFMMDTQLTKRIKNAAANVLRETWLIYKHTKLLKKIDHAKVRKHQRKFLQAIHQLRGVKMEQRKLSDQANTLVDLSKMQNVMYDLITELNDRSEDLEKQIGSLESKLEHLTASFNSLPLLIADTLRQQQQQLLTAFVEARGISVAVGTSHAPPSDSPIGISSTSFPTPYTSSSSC
UniProt O88444: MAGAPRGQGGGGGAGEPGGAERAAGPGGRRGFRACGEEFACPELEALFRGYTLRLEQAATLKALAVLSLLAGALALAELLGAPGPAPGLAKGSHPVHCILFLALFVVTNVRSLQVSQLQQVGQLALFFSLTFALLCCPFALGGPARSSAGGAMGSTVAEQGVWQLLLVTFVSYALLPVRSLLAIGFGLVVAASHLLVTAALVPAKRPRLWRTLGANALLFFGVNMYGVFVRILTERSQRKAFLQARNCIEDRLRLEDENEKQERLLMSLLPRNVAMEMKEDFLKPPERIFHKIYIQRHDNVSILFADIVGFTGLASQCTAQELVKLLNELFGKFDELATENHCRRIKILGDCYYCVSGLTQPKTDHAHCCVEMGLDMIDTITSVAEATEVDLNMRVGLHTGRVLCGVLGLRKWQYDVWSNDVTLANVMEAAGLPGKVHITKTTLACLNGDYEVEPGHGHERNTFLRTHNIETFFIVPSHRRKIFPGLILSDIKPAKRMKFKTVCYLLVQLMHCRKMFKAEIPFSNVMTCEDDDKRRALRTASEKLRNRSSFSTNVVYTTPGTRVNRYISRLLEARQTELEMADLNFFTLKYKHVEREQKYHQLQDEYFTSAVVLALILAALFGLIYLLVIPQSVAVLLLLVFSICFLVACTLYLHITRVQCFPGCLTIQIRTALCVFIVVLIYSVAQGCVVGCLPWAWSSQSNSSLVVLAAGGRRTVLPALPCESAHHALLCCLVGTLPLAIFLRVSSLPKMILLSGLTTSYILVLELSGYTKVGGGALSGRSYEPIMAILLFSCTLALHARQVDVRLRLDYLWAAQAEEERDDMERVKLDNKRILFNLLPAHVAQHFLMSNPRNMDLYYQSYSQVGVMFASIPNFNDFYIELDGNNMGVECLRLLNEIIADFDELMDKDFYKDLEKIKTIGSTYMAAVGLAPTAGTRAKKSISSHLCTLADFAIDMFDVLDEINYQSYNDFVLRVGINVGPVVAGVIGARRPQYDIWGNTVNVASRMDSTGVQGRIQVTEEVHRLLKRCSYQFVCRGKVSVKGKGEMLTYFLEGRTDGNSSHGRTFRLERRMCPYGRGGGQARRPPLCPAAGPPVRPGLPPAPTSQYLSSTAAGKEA
UniProt Q6PHS9, residues 19-1154: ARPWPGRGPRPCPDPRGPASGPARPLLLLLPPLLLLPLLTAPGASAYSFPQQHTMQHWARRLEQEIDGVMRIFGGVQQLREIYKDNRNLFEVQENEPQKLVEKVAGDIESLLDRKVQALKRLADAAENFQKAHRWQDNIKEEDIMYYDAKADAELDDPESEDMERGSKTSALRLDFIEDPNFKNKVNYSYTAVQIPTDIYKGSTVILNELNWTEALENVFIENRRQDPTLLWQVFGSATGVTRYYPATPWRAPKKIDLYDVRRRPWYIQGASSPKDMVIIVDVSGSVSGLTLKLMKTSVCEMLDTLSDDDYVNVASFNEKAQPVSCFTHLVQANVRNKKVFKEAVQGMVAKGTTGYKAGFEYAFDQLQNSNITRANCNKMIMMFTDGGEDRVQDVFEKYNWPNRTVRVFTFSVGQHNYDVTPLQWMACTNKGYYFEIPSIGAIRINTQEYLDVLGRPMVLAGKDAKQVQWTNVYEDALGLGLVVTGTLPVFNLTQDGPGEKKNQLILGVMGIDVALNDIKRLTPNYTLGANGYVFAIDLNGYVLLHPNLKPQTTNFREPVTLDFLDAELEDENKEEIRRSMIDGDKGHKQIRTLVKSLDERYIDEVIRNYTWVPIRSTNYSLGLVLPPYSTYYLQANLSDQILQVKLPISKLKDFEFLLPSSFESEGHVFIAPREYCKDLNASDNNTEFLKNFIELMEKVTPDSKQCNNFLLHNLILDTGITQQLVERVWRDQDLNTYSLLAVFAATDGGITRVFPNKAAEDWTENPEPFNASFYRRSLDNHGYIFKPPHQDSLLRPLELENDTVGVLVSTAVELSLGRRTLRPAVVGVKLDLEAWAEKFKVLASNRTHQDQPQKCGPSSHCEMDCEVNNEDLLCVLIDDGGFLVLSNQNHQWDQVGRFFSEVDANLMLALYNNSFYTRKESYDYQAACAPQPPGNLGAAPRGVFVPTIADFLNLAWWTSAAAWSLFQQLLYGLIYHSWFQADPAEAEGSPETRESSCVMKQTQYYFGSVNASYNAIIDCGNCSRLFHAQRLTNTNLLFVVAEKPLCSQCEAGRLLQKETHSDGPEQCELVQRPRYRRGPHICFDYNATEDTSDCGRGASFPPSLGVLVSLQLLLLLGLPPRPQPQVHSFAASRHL
UniProt Q8R3Z5: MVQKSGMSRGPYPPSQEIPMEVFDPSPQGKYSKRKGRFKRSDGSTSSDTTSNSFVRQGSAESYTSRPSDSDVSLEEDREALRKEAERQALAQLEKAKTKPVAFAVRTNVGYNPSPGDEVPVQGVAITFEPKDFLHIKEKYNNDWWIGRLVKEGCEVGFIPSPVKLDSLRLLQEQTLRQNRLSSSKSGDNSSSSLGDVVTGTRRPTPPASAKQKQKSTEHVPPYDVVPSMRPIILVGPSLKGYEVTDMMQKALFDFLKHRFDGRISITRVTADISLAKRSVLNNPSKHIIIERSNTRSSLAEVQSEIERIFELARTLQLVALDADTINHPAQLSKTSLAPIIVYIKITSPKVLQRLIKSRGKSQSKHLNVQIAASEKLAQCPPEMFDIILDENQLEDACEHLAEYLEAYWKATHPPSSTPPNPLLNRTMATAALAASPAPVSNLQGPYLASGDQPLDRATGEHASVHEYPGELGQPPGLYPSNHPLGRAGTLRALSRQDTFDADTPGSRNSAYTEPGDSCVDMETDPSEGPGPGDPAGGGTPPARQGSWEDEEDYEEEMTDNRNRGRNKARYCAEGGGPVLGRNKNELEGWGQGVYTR

B1: G-protein-activated inward rectifier potassium channel 1 (protein, UniProt P63250 1-501)
chain: MSALRRKFGDDYQVVTTSSSGSGLQPQGPGQGPQQQLVPKKKRQRFVDKNGRCNVQHGNLGSETSRYLSDLFTTLVDLKWRWNLFIFILTYTVAWLFMASMWWVIAYTRGDLNKAHVGNYTPCVANVYNFPSAFLFFIETEATIGYGYRYITDKCPEGIILFLFQSILGSIVDAFLIGCMFIKMSQPKKRAETLMFSEHAVISMRDGKLTLMFRVGNLRNSHMVSAQIRCKLLKSRQTPEGEFLPLDQLELDVGFSTGADQLFLVSPLTICHVIDAKSPFYDLSQRSMQTEQFEVVVILEGIVETTGMTCQARTSYTEDEVLWGHRFFPVISLEEGFFKVDYSQFHATFEVPTPPYSVKEQEEMLLMSSPLIAPAITNSKERHNSVECLDGLDDISTKLPSKLQKITGREDFPKKLLRMSSTTSEKAYSLGDLPMKLQRISSVPGNSEEKLVSKTTKMLSDPMSQSVADLPPKLQKMAGGPTRMEGNLPAKLRKMNSDRFT
B2: G-protein-activated inward rectifier potassium channel 2 (protein, UniProt P48542 1-425)
chain: MTMAKLTESMTNVLEGDSMDQDVESPVAIHQPKLPKQARDDLPRHISRDRTKRKIQRYVRKDGKCNVHHGNVRETYRYLTDIFTTLVDLKWRFNLLIFVMVYTVTWLFFGMIWWLIAYIRGDMDHIEDPSWTPCVTNLNGFVSAFLFSIETETTIGYGYRVITDKCPEGIILLLIQSVLGSIVNAFMVGCMFVKISQPKKRAETLVFSTHAVISMRDGKLCLMFRVGDLRNSHIVEASIRAKLIKSKQTSEGEFIPLNQSDINVGYYTGDDRLFLVSPLIISHEINQQSPFWEISKAQLPKEELEIVVILEGIVEATGMTCQARSSYITSEILWGYRFTPVLTMEDGFYEVDYNSFHETYETSTPSLSAKELAELANRAEVPLSWSVSSKLNQHAELETEEEEKNPEELTERNGDVANLENESKV
B3: calcium/calmodulin-dependent serine kinase Cask protein (protein, UniProt O70589 1-926)
chain: MADDDVLFEDVYELCEVIGKGPFSVVRRCINRETGQQFAVKIVDVAKFTSSPGLSTEDLKREASICHMLKHPHIVELLETYSSDGMLYMVFEFMDGADLCFEIVKRADAGFVYSEAVASHYMRQILEALRYCHDNNIIHRDVKPHCVLLASKENSAPVKLGGFGVAIQLGESGLVAGGRVGTPHFMAPEVVKREPYGKPVDVWGCGVILFILLSGCLPFYGTKERLFEGIIKGKYKMNPRQWSHISESAKDLVRRMLMLDPAERITVYEALNHPWLKERDRYAYKIHLPETVEQLRKFNARRKLKGAVLAAVSSHKFNSFYGDPPEELPDFSEDPTSSGLLAAERAVSQVLDSLEEIHALTDCSEKDLDFLHSVFQDQHLHTLLDLYDKINTKSSPQIRNPPSDAVQRAKEVLEEISCYPENNDAKELKRILTQPHFMALLQTHDVVAHEVYSDEALRVTPPPTSPYLNGDSPESANGDMDMENVTRVRLVQFQKNTDEPMGITLKMNELNHCIVARIMHGGMIHRQGTLHVGDEIREINGISVANQTVEQLQKMLREMRGSITFKIVPSYRTQSSSCERDSPSTSRQSPANGHSSTNNSVSDLPSTTQPKGRQIYVRAQFEYDPAKDDLIPCKEAGIRFRVGDIIQIISKDDHNWWQGKLENSKNGTAGLIPSPELQEWRVACIAMEKTKQEQQASCTWFGKKKKQYKDKYLAKHNAVFDQLDLVTYEEVVKLPAFKRKTLVLLGAHGVGRRHIKNTLITKHPDRFAYPIPHTTRPPKKDEENGKNYYFVSHDQMMQDISNNEYLEYGSHEDAMYGTKLETIRKIHEQGLIAILDVEPQALKVLRTAEFAPFVVFIAAPTITPGLNEDESLQRLQKESDVLQRTYAHYFDLTIINNEIDETIRHLEEAVELVCTAPQWVPVSWVY
B4: A-kinase anchoring protein 5 (protein, UniProt D3YVF0 1-745)
chain: METSVSEIQVETKDEKGPVAASPQKERQERKTATLCFKRRKKANKTKPKAGSRTAEETKKHTPEAGGSGQRQPAGAWASIKGLVTHRKRSEPAKKQKPPEAEVQPEDGALPKKKAKSRLKFPCLRFSRGAKRSRHSKLTEDSGYVRVQGEADDLEIKAQTQPDDQAIQAGSTQGLQEGVLVRDGKKSQESHISNSVTSGENVIAIELELENKSSAIQMGTPELEKETKVITEKPSVQTQRASLLESSAAGSPRSVTSAAPPSPATTHQHSLEEPSNGIRESAPSGKDDRRKTAAEEKKSGETALGQAEEAAVGQADKRALSQAGEATAGHPEEATVIQAESQAKEGKLSQAEETTVAQAKETVLSQAKEGELSQAKKATVGQAEEATIDHTEKVTVDQAEETTVGQAEEATVGQAGEAILSQAKEATVVGQAEEATVDRAEEATVGQAEEATVGHTEKVTVDQAEEATVGQAEEATVGQAEEATVDWAEKPTVGQAEEATVGQAEEATVGHTEKVTVDQAEEATVGQAEEATVGHTEKVTVDHAEEATVGQAEEATVGQAEKVTVDHAEEATVGQAEEATVGQAEKVTVDHAEEATVGQAEEATVGQAEKVTVDQAEEPTVDQAEEAISSHAPDLKENGIDTEKPRSEESKRMEPIAIIITDTEISEFDVKKSKNVPKQFLISMENEQVGVFANDSDFEGRTSEQYETLLIETASSLVKNAIELSVEQLVNEMVSEDNQINTLFQ
B5: amyloid-beta A4 precursor protein-binding family A member 1 (protein, UniProt B2RUJ5 1-842)
chain: MNHLEGSAEVEVADEAPGGEVNESVEADLEHPEVVEGQQPSPSPPPPAGHEPEDHRGHPAPPPPPPPQEEEEEERGECLARSASTESGFHNHTDTAEGDVLAAARDGYEAERAQDADDESAYAVQYRPEAEEYTEQAEAEHVEAAQRRALPNHLHFHSLEHEEAMNAAYSGYVYTHRLFHRAEDEPYAEPYADYGGLQEHVYEEIGDAPELEARDGLRLYERERDEAAAYRQEALGARLHHYDERSDGESDSPEKEAEFAPYPRMDSYEQEEDIDQIVAEVKQSMSSQSLDKAAEDMPEAEQDLERAPTPGGGHPDSPGLPAPAGQQQRVVGTPGGSEVGQRYSKEKRDAISLAIKDIKEAIEEVKTRTIRSPYTPDEPKEPIWVMRQDISPTRDCDDQRPVDGDSPSPGSSSPLGAESSSIPLHPGDPTEASTNKESRKSLASFPTYVEVPGPCDPEDLIDGIIFAANYLGSTQLLSDKTPSKNVRMMQAQEAVSRIKTAQKLAKSRKKAPEGESQPMTEVDLFISTQRIKVLNADTQEPMMDHPLRTISYIADIGNIVVLMARRRMPRSNSQENVEASHPSQDGKRQYKMICHVFESEDAQLIAQSIGQAFSVAYQEFLRANGINPEDLSQKEYSDLLNTQDMYNDDLIHFSKSENCKDVFIEKQKGEILGVVIVESGWGSILPTVIIANMMHGGPAEKSGKLNIGDQIMSINGTSLVGLPLSTCQSIIKGLKNQSRVKLNIVRCPPVTTVLIRRPDLRYQLGFSVQNGIICSLMRGGIAERGGVRVGHRIIEINGQSVVATPHEKIVHILSNAVGEIHMKTMPAAMYRLLTAQEQPVYI
B6: Frrs1l (protein, UniProt B1AXV0 29-293)
chain: SPADDSAGPGGRGPRGRARGDAGADEAVPRHDSSYGTFASEFYDLRYLSEEGYPFPTAPPVDPFAKIKVEDCGRTKGCFRYGKPGCNAETCDYFLSYRMIGADVEFELSADTDGWVAVGFSSDKKMGGDDVMACVHDDNGRVRIQHFYNVGQWAKEVQRNPARDEEGVFENNRVTCRFKRPVNVPRDETIVDLHLSWYYLFAWGPAIQGAITRHDIDSPPASERVVSIYKYEDIFMPSAAYQTFSSPFCLLLIVALTFYLLMGTP
B7: hyperpolarization-activated cyclic nucleotide-gated channel HCN3 (protein, UniProt O88705 1-779)
chain: MEEEARPAAGAGEAATPARETPPAAPAQARAASGGVPESAPEPKRRQLGTLLQPTVNKFSLRVFGSHKAVEIEQERVKSAGAWIIHPYSDFRFYWDLIMLLLMVGNLIVLPVGITFFKEENSPPWIVFNVLSDTFFLLDLVLNFRTGIVVEEGAEILLAPRAIRTRYLRTWFLVDLISSIPVDYIFLVVELEPRLDAEVYKTARALRIVRFTKILSLLRLLRLSRLIRYIHQWEEIFHMTYDLASAVVRIFNLIGMMLLLCHWDGCLQFLVPMLQDFPSDCWVSMNRMVNHSWGRQYSHALFKAMSHMLCIGYGQQAPVGMPDVWLTMLSMIVGATCYAMFIGHATALIQSLDSSRRQYQEKYKQVEQYMSFHKLPADTRQRIHEYYEHRYQGKMFDEESILGELSEPLREEIINFTCRGLVAHMPLFAHADPSFVTAVLTKLRFEVFQPGDLVVREGSVGRKMYFIQHGLLSVLARGARDTRLTDGSYFGEICLLTRGRRTASVRADTYCRLYSLSVDHFNAVLEEFPMMRRAFETVAMDRLRRIGKKNSILQRKRSEPSPGSSGGVMEQHLVQHDRDMARGVRGLAPGTGARLSGKPVLWEPLVHAPLQAAAVTSNVAIALTHQRGPLPLSPDSPATLLARSARRSAGSPASPLVPVRAGPLLARGPWASTSRLPAPPARTLHASLSRTGRSQVSLLGPPPGGGARRLGPRGRPLSASQPSLPQRATGDGSPRRKGSGSERLPPSGLLAKPPGTVQPPRSSVPEPVTPRGPQISANM

Assays:
Assay in all cases: affinity purification with mass spectrometry; mouse midbrain plasma-membrane-enriched fraction solubilised in CL47a; antibody-coated magnetic beads (protein A Dynabeads for Cav1.3), 2 h at 4 °C; LC-MS/MS, iBAQ, Class A/B against 11 control IPs from knock-out mice
[1] = molecular target: Cav1.2 L-type voltage-dependent Ca2+ channel α1-subunit (mouse (endogenous in midbrain)) (UniProt Q01815)
[2] = molecular target: SK3 calcium-activated small-conductance potassium channel (mouse (endogenous in midbrain)) (UniProt P58391)
[3] = molecular target: T1, hyperpolarization-activated cyclic nucleotide-gated channel HCN2 (mouse (endogenous in midbrain)) (UniProt O88703)
T1 sequence: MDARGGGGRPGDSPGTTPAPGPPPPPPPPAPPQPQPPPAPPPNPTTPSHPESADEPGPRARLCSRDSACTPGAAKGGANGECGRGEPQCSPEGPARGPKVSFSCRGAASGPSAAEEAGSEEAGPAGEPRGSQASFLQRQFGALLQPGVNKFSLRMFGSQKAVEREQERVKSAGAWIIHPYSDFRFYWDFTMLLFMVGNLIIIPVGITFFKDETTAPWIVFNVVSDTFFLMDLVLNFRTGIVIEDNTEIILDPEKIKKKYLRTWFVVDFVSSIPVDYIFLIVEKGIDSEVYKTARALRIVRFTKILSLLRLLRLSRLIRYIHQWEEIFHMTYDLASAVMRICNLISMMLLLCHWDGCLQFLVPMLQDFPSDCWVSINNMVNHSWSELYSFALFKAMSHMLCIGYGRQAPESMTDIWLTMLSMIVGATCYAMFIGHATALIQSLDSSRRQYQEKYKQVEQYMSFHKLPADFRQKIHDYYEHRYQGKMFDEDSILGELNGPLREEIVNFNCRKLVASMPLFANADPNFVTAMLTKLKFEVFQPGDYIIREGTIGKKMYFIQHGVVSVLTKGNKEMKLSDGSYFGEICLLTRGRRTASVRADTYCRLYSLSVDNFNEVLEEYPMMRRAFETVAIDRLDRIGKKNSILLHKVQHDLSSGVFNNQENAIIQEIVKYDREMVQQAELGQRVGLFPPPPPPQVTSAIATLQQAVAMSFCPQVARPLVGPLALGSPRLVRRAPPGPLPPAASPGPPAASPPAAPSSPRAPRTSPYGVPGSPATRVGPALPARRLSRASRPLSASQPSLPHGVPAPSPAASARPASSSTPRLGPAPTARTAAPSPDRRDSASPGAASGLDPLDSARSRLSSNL

Molecule | binding [1] | binding [2] | also measured
adenylate cyclase 1 (from UniProt O88444 1-1118) | binds |  | 
voltage-dependent calcium channel auxiliary subunit α2δ2 (from UniProt Q6PHS9 19-1154) | binds |  | 
voltage-dependent calcium channel auxiliary subunit β1 (from UniProt Q8R3Z5 1-597) | binds |  | 
B1 | binds |  | 
B2 | binds |  | 
B3 |  | binds | 
B4 |  | binds | 
B5 |  | binds | 
B6 |  |  | binding [3]: binds
B7 |  |  | binding [3]: binds
